Among the data in PubChem BioAssay AID901 (National Center for Advancing Translational Sciences (NCATS), 2007) are AC50 values, retold here.

SMILES strings stand for the structures. Some of the results follow. The main result of the screen is listed elsewhere. These columns were measured beside it and carry no call. The list favours compounds with an active or inconclusive main result. The note in brackets gives the kind of curve behind each potency; many fits are weak.

The nature of the assay: qHTS Assay for Identifying the Cell-Membrane Permeable IMPase Inhibitors. The note with it: CHO-M1 cells, IP1 accumulation, HTRF TR-FRET ratio; measured here: donor channel 620 nm AC50.
Broadly, the AC50 is the concentration giving half of the maximal activity seen. Take `COc1ccccc1NC(=O)NCCN1CCN(c2cccc(Cl)c2)CC1`: the AC50 was 2.82 µM [falling, full curve, poor fit]. As to `COc1ccccc1Cn1c(=S)[nH]c2cc(C(=O)NCCN3CCOCC3)ccc2c1=O`, the half-maximal activity concentration (AC50) was 39.8 µM [falling, partial curve, poor fit]. In the case of `CCOC(=O)C1C(=O)OC2(CCCC2)C1C(=O)OCC` (centres undefined), the concentration at half-maximal activity (AC50) is 5.62 µM [falling, single point]. For the compound `COc1cccc2sc(NC(=O)c3ccc(Br)s3)nc12`, the half-maximal activity concentration (AC50) was 31.6 µM [rising, single point]. Regarding `CCOC(=O)c1cc2c(=O)n3ccccc3nc2n(CC(C)C)c1=NC(=O)c1c(-c2c(F)cccc2Cl)noc1C`, the AC50 was 17.8 µM [rising, single point].

In the case of `Cn1c(=O)oc2cc(S(=O)(=O)Nc3ccc4c(c3)OCCO4)ccc21`, the AC50 was 2.51 µM [falling, partial curve]. On to `C=C(C)c1cccc(C(C)(C)NC(=O)N2CCN(CC)CC2)c1`, for which the AC50 is 1.26 µM [rising, partial curve]. In the case of `N#Cc1c(-c2ccc(Cl)cc2)ccn2nc(CCC(=O)O)nc12`, the half-maximal activity concentration (AC50) is 15.8 µM [falling, single point]. With `Oc1ccc(N=Cc2ccc(O)c(O)c2)cc1`, the concentration at half-maximal activity (AC50) was 11.2 µM [falling, partial curve].

As to `CN1CCN(Cc2c(O)ccc3c2oc(=O)c2ccccc23)CC1`, the AC50 was 3.98 µM [rising, single point]. Turning to `C/C(=N\NC(=O)c1c(Cl)c(C)nn1C)c1cccc(NC(=O)COc2ccccc2)c1`, the concentration at half-maximal activity (AC50) was 0.1 µM [falling, full curve, poor fit]. Regarding `CCOC(=O)C1C(=O)CC(C)(O)C(C(=O)OCC)C1c1cccs1` (centres undefined), the AC50 is 1 µM [falling, full curve, poor fit]. For `CCOC(=O)CNC(=O)c1cn(C)c(=O)c2cc(OC)c(OC)cc12`, the half-maximal activity concentration (AC50) is 7.94 µM [falling, partial curve]. For the compound `CCCCn1nnnc1NCc1ccc(OC)c(OC)c1OC`, the half-maximal activity concentration (AC50) is 10 µM [rising, partial curve, poor fit]. Take `CNc1cnn(-c2ccc(C)cc2)c(=O)c1Cl`: the AC50 is 10 µM [falling, partial curve, poor fit]. In the case of `O=C(Nc1ccc(Br)cc1F)c1ccncc1` it was 0.126 µM [falling, single point]. Consider `COc1ccc(C2C(C(=O)NCCN3CCOCC3)c3ccccc3C(=O)N2C)cc1OC` (centres undefined), for which the concentration at half-maximal activity (AC50) was 3.16 µM [falling, full curve]. `COCCNC(=O)CSc1nc2ccccc2c(=O)n1CCCC(=O)NCc1ccccc1`: the concentration at half-maximal activity (AC50) is 0.0126 µM [rising, full curve, poor fit].

Regarding `O=S(=O)(Nc1ccccc1F)c1ccc2nsnc2c1`, the AC50 is 0.794 µM [falling, partial curve]. With `CC1CCN(c2nncc3ccccc23)CC1`, the AC50 is 0.0158 µM [rising, full curve, poor fit]. For `COc1ccc(N2C(=O)CC(Sc3nnc(-c4ccccc4)o3)C2=O)cc1` (centres undefined), the AC50 is 12.6 µM [rising, single point]. Consider `Cc1ccc2[nH]c3c(=S)nc[nH]c3c2c1`, for which the AC50 was 12.6 µM [rising, partial curve].

For the compound `Cc1cc(NC(=O)CCC(=O)N(c2ccccc2)C(C(=O)NC2CCCCC2)c2cccs2)no1` (centres undefined), the concentration at half-maximal activity (AC50) is 1 µM [falling, full curve]. Turning to `Cc1cccc(OCC(=O)Nc2cc(C)on2)c1`, the concentration at half-maximal activity (AC50) is 0.0501 µM [rising, full curve, poor fit]. In the case of `O=C1c2ccccc2C(=O)N1CCc1csc(-c2cccc(F)c2)n1` it was 12.6 µM [rising, single point]; in that of `Cn1c(/N=C/c2ccc3c(c2)OCO3)nc2ccccc21`, 0.0631 µM [rising, full curve, poor fit]. Then `O=c1cc(COn2nnc3ccc(C(F)(F)F)cc32)nc2sccn12`, with 0.251 µM [falling, single point]. Take `COc1ccc(S(=O)(=O)Nc2ccc(NC(C)=O)cc2)cc1`: the concentration at half-maximal activity (AC50) was 3.16 µM [falling, partial curve, poor fit]. As for `O=C1C(c2ccccc2)C(c2ccccc2)NC(c2ccccc2)C1c1ccccc1` (centres undefined), the half-maximal activity concentration (AC50) is 0.0316 µM [falling, full curve]. Take `COc1ccc(S(=O)(=O)N2CCCCC2)cc1`: the AC50 is 7.94 µM [falling, partial curve, poor fit]. In the case of `O=C(Nc1ccc2c(c1)OCO2)Oc1ccccc1` it was 5.62 µM [rising, single point]; in that of `O=C(Nc1cccc(-c2nc3ccccc3[nH]2)c1)c1ccccc1F`, 3.16 µM [falling, single point]. As for `COC(=O)c1ccc(COc2ccc(-c3nn[nH]n3)cc2)cc1`, the half-maximal activity concentration (AC50) was 3.98 µM [rising, full curve]. `CCCC/C(O)=C1\C(=O)CC(C)(C)CC1=Nc1ccc(OC)cc1`: the AC50 was 0.398 µM [rising, partial curve, poor fit]. With `CC(/C=C/c1ccccc1)=N\NC(=O)C1CC1(C)c1ccccc1` (centres undefined), the AC50 is 0.316 µM [falling, full curve, poor fit]. Then `Cc1cc(N2C(=O)C(O)=C(C(=O)c3cccs3)C2c2ccccc2)no1` (centres undefined), with 10 µM [rising, partial curve]. As for `CCc1c(C(=O)N/N=C/c2ccc(C)o2)csc1C`, the half-maximal activity concentration (AC50) is 0.126 µM [rising, single point].

With `Cc1sc2ncnc(Sc3nc4ccccc4s3)c2c1C`, the AC50 was 35.5 µM [rising, single point]. Then `N#Cc1cnn2c1nc(N1CCOCC1)c1ccccc12`, with 0.794 µM [rising, single point]; and `COc1ccc(CCNC(=O)CSc2nnc(CNc3ccc(Cl)cc3)o2)cc1OC`, with 0.398 µM [rising, full curve].

On to `COc1ccccc1OCC(=O)NCCNC(=O)COc1ccccc1OC`, for which the AC50 is 6.31 µM [falling, single point]. Then `CC(C(=O)Nc1ccc(F)c(F)c1F)N1CCCCCC1` (centres undefined), with 22.4 µM [rising, single point]; and `CCSc1nnc(NC(=O)C2CCCCC2)s1`, with 7.94 µM [falling, partial curve, poor fit]. For the compound `O=[N+]([O-])c1cc(C(F)(F)F)ccc1Sc1nccn1Cc1ccccc1`, the AC50 is 2 µM [rising, full curve, poor fit].
